The text below walks through data of patent US7041498.

Amino acid sequences for entries named in this document (tags omitted).
UniProt P19793: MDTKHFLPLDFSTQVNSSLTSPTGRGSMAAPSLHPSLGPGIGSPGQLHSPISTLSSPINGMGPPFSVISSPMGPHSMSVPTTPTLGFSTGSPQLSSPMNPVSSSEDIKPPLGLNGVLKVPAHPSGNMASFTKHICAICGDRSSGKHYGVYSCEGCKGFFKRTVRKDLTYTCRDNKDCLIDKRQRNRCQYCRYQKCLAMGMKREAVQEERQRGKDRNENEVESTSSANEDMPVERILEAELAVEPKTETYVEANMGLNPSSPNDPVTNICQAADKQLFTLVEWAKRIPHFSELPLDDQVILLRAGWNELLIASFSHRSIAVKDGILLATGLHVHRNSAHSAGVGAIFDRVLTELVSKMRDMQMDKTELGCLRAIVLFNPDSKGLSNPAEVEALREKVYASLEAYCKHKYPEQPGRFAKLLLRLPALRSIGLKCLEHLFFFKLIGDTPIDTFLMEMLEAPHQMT

In assay [1] the target is RXRα, in vitro translated (UniProt P19793). As to the kind of experiment: electrophoretic mobility shift assay, in vitro translated proteins on 32P-labeled hsp27-EcRE DNA. (Mobility shift assays separate free from complexed probe on a gel.)
For assay [2] the target is unchanged. As to the kind of experiment: electrophoretic mobility shift assay, in vitro translated proteins on 32P-labeled idealized IR1 DNA.

Results are given in words; binding and its absence hold for the method and conditions named. Some binding calls cover weakened binding; strength is not graded here.

B1: FAR (Farnesoid Activated Receptor), in vitro translated (receptor)
chain: MNLIGPSHLQATDEFALSENLFGVLTEHAAGPLGQNLDLESYSPYNNVQFPQVQPQISSSSYYSNLGFYPQQPEDWYSPGLYELRRMPTESVYQGETEVSEMPVTKKPRMAASSAGRIKGDELCVVCGDRASGYHYNALTCEGCKGFFRRSITKNAVYKCKNGGNCVMDMYMRRKCQDCRLRKCREMGMLAECLLTEIQCKSKRLRKNVKQHADQTVNEDSEGRDLRQVTSTTKLCREKTELTVDQQTLLDYIMDSYSKQRMPQEITNKILKEEFSAEENFLILTEMATSHVQILVEFTKRLPGFQTLDHEDQIALLKGSAVEAMFLRSAEIFNKKLLPDTQTCWKKEFERAASPMRYITPMFSFYKSVGELKMTQEEYALLTAIVILSPDRQYIKDREAVEKLQEPLLDVLQKLCKIYQPENPQHFACLLGRLTELRTFNHHHAEMLMSWRVNDHKFTPLLCEIWDVQ
Regarding B1, the binding entry in assay [1] and in assay [2] was “binds” in each case.
